Results: PubChem BioAssay AID1487 (National Center for Advancing Translational Sciences (NCATS), 2009)
This is one part of the list. Shown are side measurements of this screen, not its main read-out; they come without a call. Compounds called inactive in the main read-out are mostly missing here. The note in brackets gives the kind of curve behind each potency; many fits are weak.

Test: qHTS Assay for Modulators of Lamin A Splicing
Settings: HeLa LMNA splicing GFP/RFP minigene ratio, 48 h
How it was run: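 S3 HeLa cells stably expressing lamin A-EGFP splicing minigene plus DsRed2, 600 cells/well, 48 h compound exposure at 37C. Laser-scanning cytometry; analysed as GFP (500-530 nm)/RFP (575-640 nm) total intensity ratio; 0.5% DMSO vehicle.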

[1] = measured here: RFP viability control channel
[2] = measured here: GFP splicing reporter channel

SMILES | AC50 [1] | AC50 [2]
Cc1cc(C(=O)Cn2ncc(Cl)c(Cl)c2=O)c(C)n1CC(F)(F)F | 15.8 µM [falling, partial curve] | 
COc1ccc(-c2c(NC(=O)c3ccco3)n(C)c3ccccc3c2=O)cc1 | 11.2 µM [falling, partial curve, poor fit] | 
C=C(C(=O)c1ccccc1)C(CC(=O)c1ccccc1)c1ccccc1 (stereo not drawn) | 11.2 µM [falling, single point] | 12.6 µM [falling, partial curve]
Cc1ccc(S(=O)(=O)NCCC(=O)OCC(=O)Nc2ccccc2Cl)cc1 | 14.1 µM [rising, partial curve, poor fit] | 
COc1cc(NS(=O)(=O)c2ccc(N/C=C(\C#N)c3nc4ccccc4o3)cc2)nc(OC)n1 | 8.91 µM [rising, partial curve] | 6.31 µM [rising, partial curve]
COc1ccc(-c2noc(CN3CCC(Cc4ccccc4)CC3)n2)cc1 | 35.5 µM [rising, single point] | 
CCN(CC)S(=O)(=O)c1cc(NC(=O)C(C)Nc2ccccc2N2CCOCC2)ccc1C (stereo not drawn) | 0.224 µM [falling, full curve, poor fit] | 0.891 µM [falling, partial curve]
CCOC(=O)c1sc(NC(=O)c2nc3ncccn3n2)c(C(=O)OC(C)C)c1C | 0.00316 µM [falling, full curve, poor fit] | 
Cc1ccc(NC(=S)NCCN(C2CCCCC2)C2CCCC2)cc1C | 35.5 µM [falling, single point] | 28.2 µM [falling, partial curve]
CC(=O)c1c(C)[nH]c(C(=O)Nc2ccc(Cl)c(S(=O)(=O)N3CCOCC3)c2)c1C | 12.6 µM [rising, partial curve] | 
Cc1ccc(NS(=O)(=O)c2ccc3[nH]c4c(c3c2)CCCC4)c(C)c1 | 25.1 µM [falling, single point] | 17.8 µM [falling, partial curve]
CN(C)Cc1ccccc1Sc1cccc2ccccc12 | 22.4 µM [rising, single point] | 
Cc1cc(C)cc(C(=O)NCC(=O)OCC(=O)N2CCN(S(=O)(=O)c3ccc4ccccc4c3)CC2)c1 | 5.62 µM [rising, full curve, poor fit] | 7.08 µM [rising, partial curve]
CCC(=O)N1CCc2cc(S(=O)(=O)NCCC(=O)N3CCN(Cc4ccccc4)CC3)ccc21 | 15.8 µM [rising, single point] | 17.8 µM [rising, single point]
CCOCCn1c(COc2ccc(C)cc2)nc2ccccc21 | 15.8 µM [rising, single point] | 10 µM [rising, partial curve, poor fit]
COC(=O)c1ccc2nc(NC(=O)CN3C(=O)CCC3=O)sc2c1 | 6.31 µM [rising, partial curve] | 

Record cards, from the list above:
`Cc1cc(C(=O)Cn2ncc(Cl)c(Cl)c2=O)c(C)n1CC(F)(F)F` as listed: AC50 [1]: 15.8 µM [falling, partial curve]
`CN(C)Cc1ccccc1Sc1cccc2ccccc12` as listed: AC50 [1]: 22.4 µM [rising, single point]

Next part

SMILES | AC50 [1] | AC50 [2]
CCCCCCCCCCn1c2c(c(=N)c3c1CCC3)CCC2 | 20 µM [falling, partial curve] | 15.8 µM [falling, single point]
COc1cc(-c2cc(C(=O)Nc3c(Cl)cc(Cl)cc3Cl)c3ccccc3n2)cc(OC)c1OC |  | 22.4 µM [rising, single point]
Cc1ccc(Cl)cc1NC(=O)C[n+]1ccc(Cc2ccc([N+](=O)[O-])cc2)cc1 | 35.5 µM [rising, single point] | 
CCOc1ccccc1NC(=O)CN(c1ccc(OC)cc1)S(=O)(=O)c1c(C)noc1C | 6.31 µM [rising, full curve] | 11.2 µM [rising, partial curve]
CCOC(=O)C1(CC2CC2)CCN(Cc2cnc(-c3ccccc3C)nc2)CC1 |  | 35.5 µM [falling, partial curve, poor fit]
Cn1c(=O)c(C(=O)COC(=O)c2cc(C(F)(F)F)nc3ccccc23)c(N)n(Cc2ccccc2)c1=O | 25.1 µM [rising, single point] | 12.6 µM [rising, partial curve]
COc1cccc(Cn2c(=O)c(C)nc3cnc(N4CCN(C)CC4)nc32)c1 |  | 14.1 µM [falling, partial curve]
O=C(/C=C/c1ccccc1Cl)c1cccnc1 | 35.5 µM [falling, single point] | 25.1 µM [falling, single point]
O=C(/C=C/c1ccco1)Nc1nnc(-c2ccco2)s1 | 1 µM [rising, partial curve, poor fit] | 1.26 µM [rising, full curve]
CCOc1ccc2nc(SC3CC(=O)N(c4ccc(OC)cc4OC)C3=O)sc2c1 (stereo not drawn) |  | 2.82 µM [falling, partial curve, poor fit]
COc1ccc(CC(=O)NC(C)c2nnc(SCCC(=O)Nc3ccccc3)n2C)cc1 (stereo not drawn) | 4.47 µM [falling, partial curve, poor fit] | 1 µM [falling, full curve, poor fit]
COc1ccc(Cn2c(=S)[nH]c3cc(C(=O)NCc4cccnc4)ccc3c2=O)cc1 | 5.62 µM [falling, single point] | 
CCc1nnc(NS(=O)(=O)c2ccc(NC(=S)NC(=O)/C=C/c3ccccc3)cc2)s1 | 14.1 µM [rising, single point] | 
CC(=O)O[C@H]1C[C@@]2(C)[C@@H](C[C@@H](O)[C@H]3[C@@]4(C)CC[C@@H](O)[C@@H](C)C4CC[C@@]32C)/C1=C(\CCC=C(C)C)C(=O)O (stereo partly drawn) | 15.8 µM [falling, single point] | 11.2 µM [falling, partial curve, poor fit]
Cn1cc(Br)c(C(=O)Nc2ncc(Br)s2)n1 | 0.708 µM [falling, partial curve, poor fit] | 1 µM [falling, full curve, poor fit]
CCOC(=O)N1CCN(S(=O)(=O)c2ccc(F)c(C(=O)Nc3cccc(Cl)c3C)c2)CC1 | 14.1 µM [rising, partial curve] | 
